Here are results for 26 compounds from the supplement of paper PMC3741180, “A Novel High Throughput Biochemical Assay to Evaluate the HuR Protein-RNA Complex Formation” (PLoS ONE, 2013).

The chains behind the UniProt entries cited, without tags or fusion partners.
UniProt Q15717, whole entry: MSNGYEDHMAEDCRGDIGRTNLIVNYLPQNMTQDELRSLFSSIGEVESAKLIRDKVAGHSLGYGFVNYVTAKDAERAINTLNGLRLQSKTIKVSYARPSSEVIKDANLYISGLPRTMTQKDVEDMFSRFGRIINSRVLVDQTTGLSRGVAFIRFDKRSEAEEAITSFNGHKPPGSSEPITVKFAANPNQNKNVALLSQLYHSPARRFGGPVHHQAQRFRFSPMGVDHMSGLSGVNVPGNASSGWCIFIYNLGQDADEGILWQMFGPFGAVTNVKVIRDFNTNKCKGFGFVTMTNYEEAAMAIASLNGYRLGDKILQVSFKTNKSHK

Some of the results follow. Most values lie within the scatter of the assay; repeated measurements hardly agree.

The assay has as its target HuR (ELAVL1) - TNFalpha ARE RNA complex (UniProt Q15717). The assay can be described thus: AlphaScreen HuR-RNA complex signal Z-score relative to positive (Bi-TNF, DMSO) controls (Z-score (SD units of positive control)); higher = more complex signal. Particulars: screen stage: primary screen; compound concentration: 25 nM.
In the case of `C[C@]12CCC(=O)C=C1CC[C@@H]1[C@@H]2[C@@H](O)C[C@@]2(C)[C@H]1CC[C@]2(O)C(=O)COC(=O)CCC(=O)O`, the “AlphaScreen HuR-RNA complex signal Z-score” value is -1.09.
For the compound `C[C@@]12CCc3occc3[C@H]1CC[C@@]13C[C@@H](CC[C@H]12)[C@@](O)(CO)C3`, the “AlphaScreen HuR-RNA complex signal Z-score” value turned out to be 1.36.
Consider `CO/N=C(\C(=O)N[C@@H]1C(=O)N2C(C(=O)O)=C(CSc3nc(=O)c(O)nn3C)CS[C@H]12)c1csc(N)n1`, for which the “AlphaScreen HuR-RNA complex signal Z-score” value came to 1.3.
As for `FC(F)(F)c1ccccc1-n1ccnc1`, the figure is 0.199; as for `O=C(Cc1cccs1)N[C@@H]1C(=O)N2C(C(=O)[O-])=C(C[n+]3ccccc3)CS[C@H]12`, 1.13.
The figure for `O=C(O)CS` is 3.05.
For `COc1cc(-c2coc3cc(O)c(OC)c(O)c3c2=O)cc(O)c1OC`, the “AlphaScreen HuR-RNA complex signal Z-score” value came to 1.48.
On to `CCOC(=O)OC(C)OC(=O)[C@@H]1N2C(=O)[C@@H](NC(=O)[C@H](N)c3ccccc3)[C@H]2SC1(C)C` (stereo partly specified), for which the “AlphaScreen HuR-RNA complex signal Z-score” value was determined as 0.923.
Regarding `CC(C)CCC[C@@H](C)[C@H]1CC[C@H]2[C@@H]3CC[C@H]4C[C@H](O)CC[C@]4(C)[C@H]3CC[C@]12C`, the “AlphaScreen HuR-RNA complex signal Z-score” value was determined as 1.61.
The figure for `COC1=C(OC)C(=O)C(CCCCCCCCCCO)=C(C)C1=O` is 1.27.
With `CC(=O)N[C@@H](CC(C)C)C(=O)O`, the “AlphaScreen HuR-RNA complex signal Z-score” value stood at 1.66.
In the case of `Nc1nc(=O)c2nc(CNc3ccc(C(=O)N[C@@H](CCC(=O)O)C(=O)O)cc3)cnc2[nH]1`, the “AlphaScreen HuR-RNA complex signal Z-score” value was 1.74.
As for `C=CC[S+]([O-])C[C@H](N)C(=O)O` (mixture of isomers), the “AlphaScreen HuR-RNA complex signal Z-score” value was 1.23.
For `COc1c2ccoc2nc2c(OC)c(OCC(O)C(C)(C)O)ccc12` (stereo unspecified), the “AlphaScreen HuR-RNA complex signal Z-score” value came to 2.05.
As to `CC[C@H]1OC(=O)[C@H](C)[C@@H](O[C@H]2C[C@@](C)(OC)[C@@H](O)[C@H](C)O2)[C@H](C)[C@@H](O[C@@H]2O[C@H](C)C[C@H](N(C)C)[C@H]2O)[C@](C)(O)C[C@@H](C)/C(=N\OCOCCOC)[C@H](C)[C@@H](O)[C@]1(C)O`, the “AlphaScreen HuR-RNA complex signal Z-score” value is -1.64.
`O=C1CN2Cc3c(ccc(Cl)c3Cl)N=C2N1`: the “AlphaScreen HuR-RNA complex signal Z-score” value is -2.94.
Turning to `C#CCCCCCCCCCCCC(O)CC(O)CO` (stereo unspecified), the “AlphaScreen HuR-RNA complex signal Z-score” value is 1.14.
As for `CC(C)NCC(O)COc1ccc(COCCOC(C)C)cc1` (stereo unspecified), the “AlphaScreen HuR-RNA complex signal Z-score” value is -0.491.
On to `CC(=O)OC[C@@]1(O)C[C@@]23CC[C@@H]4c5ccoc5CC[C@@]4(C)[C@@H]2CC[C@@H]1C3`, for which the “AlphaScreen HuR-RNA complex signal Z-score” value was -0.495.
In the case of `COc1ccc(-c2cc(=O)c3c(O)cc(O)cc3o2)cc1O`, the “AlphaScreen HuR-RNA complex signal Z-score” value came out at 1.77.
For the compound `COc1cc2ccc(=O)oc2c(OC)c1OC`, the “AlphaScreen HuR-RNA complex signal Z-score” value came out at 2.43.
For `O=C(Cn1ccnc1[N+](=O)[O-])NCCO`, the “AlphaScreen HuR-RNA complex signal Z-score” value was found to be 0.457.
As for `CC(=O)OCC(COC(C)=O)OC(C)=O`, the figure is -1.52; as for `O=c1cc(-c2ccc(O)cc2)oc2cc(O)cc(O)c12`, 3.62.
On to `CCOc1cccc(C(=O)c2ccc(O)c(O)c2O)c1`, for which the “AlphaScreen HuR-RNA complex signal Z-score” value came to 1.63.
As to `NC(=O)N1c2ccccc2C=Cc2ccccc21`, the “AlphaScreen HuR-RNA complex signal Z-score” value was determined as 0.312.
